Measurements as given in article PMC3878975.

Target: T1, peptide representing the N-terminus of Sec61 (…) (human)
T1 sequence (peptide): AIKFLEVIKPFC
Experiment: SPR; BIAlite; Sec61 N-terminal peptide thiol-coupled on CM5 chip (measuring cell), TRAM N-terminal peptide in the control cell, difference shown; Sec62-C-6His 1 μM flowed at 10 μl/min in 10 mM HEPES-KOH pH 7.4, 150 mM NaCl, 2 mM MgCl, 6.4 mM KCl, 0.005% surfactant, without Ca2+ or with 2 mM Ca2+ (more pronounced binding without Ca2+); 1:1 binding models with mass transfer; both purified

## Sec62-C-6His, the C-terminal cytosolic domain of Sec62 (human) (domain or fragment)
  binding: binds

Results are given in words; binding and its absence hold for the method and conditions named. Binding calls can cover weak binding; strength is not graded here.
